{
  "source": "PubChem BioAssay AID330",
  "about": "(DTP/NCI, 2004)",
  "system": "P388 leukemia ip, CD2F1 mice, survival T/C",
  "test": "NCI In Vivo Anticancer Drug Screen. Data for tumor model P388 Leukemia (intraperitoneal) in CD2F1 (CDF1) mice",
  "conditions": "T/C endpoint: median survival time, higher T/C = longer survival",
  "note": "The list is a part of this screen's results and no random one: it is rich in T/C values a quarter to a half above the control, in often repeated tests (any T/C) and in doses without a T/C. Further doses and runs are listed elsewhere. T/C gives the treated animals as a percentage of the vehicle group. Some entries give survivors of the animals treated and no T/C: the source holds a T/C of zero for them, seemingly a mark for toxic or unscored doses. Some doses without a T/C left all or most animals alive at the check, yet need not have been tolerated: survival well below the control is almost never listed, so the zero probably covers shortened survival too. Survivors were counted at the toxicity check, usually on the fifth day, unless a day is given; later deaths do not show. Schedule codes are those of the source, taken here to give the interval after Q, in days (D) or hours (H), and the number of doses after X. For survival time, this PubChem deposit counts one and a half times the control or more as active, and values a quarter to a half above the control carry no call in these data; other NCI protocols may use other cut-offs. Some entries hold several experiments; their values stand side by side, smallest first. Some T/C values are followed by the survivors on the day toxicity was checked, most often the fifth; without a count, all were alive then.",
  "data": [
    {"smiles": "Nc1ncnc2c1ncn2C1OC(CO)C(O)C1O", "note": "(stereo unspecified)", "values": [
      {"measurement": "T/C", "setting": "dose: 5.0 mg/kg/injection, schedule: Q03HX016 (ip), vehicle: saline, evaluated on day 5", "value": "128 % of control"},
      {"measurement": "T/C", "setting": "dose: 5.0 mg/kg/injection, schedule: Q03HX016 (ip), vehicle: saline, evaluated on day 60", "value": "128 % of control"},
      {"measurement": "survivor count", "setting": "dose: 10.0 mg/kg/injection, schedule: Q01DX009 (ip), vehicle: saline", "value": "6 of 6"},
      {"measurement": "T/C", "setting": "dose: 10.0 mg/kg/injection, schedule: Q03HX016 (ip), vehicle: saline, evaluated on day 5", "value": "134 % of control [6 of 7 alive]"},
      {"measurement": "T/C", "setting": "dose: 10.0 mg/kg/injection, schedule: Q03HX016 (ip), vehicle: saline, evaluated on day 60", "value": "134 % of control [7 of 8 alive]"},
      {"measurement": "T/C", "setting": "dose: 12.5 mg/kg/injection, schedule: Q01DX009 (ip), vehicle: saline, evaluated on day 5", "value": "128 % of control"},
      {"measurement": "T/C", "setting": "dose: 12.5 mg/kg/injection, schedule: Q01DX009 (ip), vehicle: saline, evaluated on day 60", "value": "128 % of control"},
      {"measurement": "survivor count", "setting": "dose: 20.0 mg/kg/injection, schedule: Q03HX016 (ip), vehicle: saline", "value": "8 of 8"},
      {"measurement": "T/C", "setting": "dose: 22.0 mg/kg/injection, schedule: Q01DX009 (ip), vehicle: saline with Tween-80", "value": "127 % of control"},
      {"measurement": "T/C", "setting": "dose: 25.0 mg/kg/injection, schedule: Q01DX009 (ip), vehicle: saline sonified", "value": "133 % of control"},
      {"measurement": "T/C", "setting": "dose: 25.0 mg/kg/injection, schedule: Q01DX009 (ip), vehicle: saline with Tween-80", "value": "131 % of control"},
      {"measurement": "T/C", "setting": "dose: 25.0 mg/kg/injection, schedule: Q01DX009 (ip), vehicle: saline, evaluated on day 5", "value": "128 % of control"},
      {"measurement": "T/C", "setting": "dose: 25.0 mg/kg/injection, schedule: Q01DX009 (ip), vehicle: saline, evaluated on day 60", "value": "128 % of control"},
      {"measurement": "T/C", "setting": "dose: 33.0 mg/kg/injection, schedule: Q01DX009 (ip), vehicle: saline with Tween-80", "value": "132 % of control"},
      {"measurement": "survivor count", "setting": "dose: 40.0 mg/kg/injection, schedule: Q03HX016 (ip), vehicle: saline", "value": "0 of 8"},
      {"measurement": "T/C", "setting": "dose: 50.0 mg/kg/injection, schedule: Q01DX009 (ip), vehicle: saline with Tween-80, evaluated on day 5", "value": "127 % of control"},
      {"measurement": "T/C", "setting": "dose: 50.0 mg/kg/injection, schedule: Q01DX009 (ip), vehicle: saline with Tween-80, evaluated on day 20", "value": "140 % of control"},
      {"measurement": "T/C", "setting": "dose: 50.0 mg/kg/injection, schedule: Q01DX009 (ip), vehicle: saline, evaluated on day 5", "value": "131 % of control"},
      {"measurement": "T/C", "setting": "dose: 50.0 mg/kg/injection, schedule: Q01DX009 (ip), vehicle: saline, evaluated on day 60", "value": "131 % of control"},
      {"measurement": "T/C", "setting": "dose: 50.0 mg/kg/injection, schedule: Q03HX016 (ip), vehicle: Klucel (hydroxypropylcellulose) (HPC)", "value": "139 % of control"},
      {"measurement": "T/C", "setting": "dose: 80.0 mg/kg/injection, schedule: Q01DX009 (ip), vehicle: saline", "value": "133 % of control"},
      {"measurement": "survivor count", "setting": "dose: 80.0 mg/kg/injection, schedule: Q03HX016 (ip), vehicle: saline", "value": "0 of 8"},
      {"measurement": "survivor count", "setting": "dose: 100.0 mg/kg/injection, schedule: Q01DX009 (ip), vehicle: saline", "value": "7 of 8"},
      {"measurement": "T/C", "setting": "dose: 100.0 mg/kg/injection, schedule: Q03HX016 (ip), vehicle: Klucel (hydroxypropylcellulose) (HPC)", "value": "130 % of control"},
      {"measurement": "survivor count", "setting": "dose: 100.0 mg/kg/injection, schedule: Q04DX003 (ip), vehicle: saline sonified", "value": "5 of 6"},
      {"measurement": "T/C", "setting": "dose: 150.0 mg/kg/injection, schedule: Q01DX009 (ip), vehicle: saline sonified", "value": "131 % of control"},
      {"measurement": "T/C", "setting": "dose: 160.0 mg/kg/injection, schedule: Q01DX009 (ip), vehicle: saline", "value": "125 and 137 % of control"},
      {"measurement": "T/C", "setting": "dose: 177.0 mg/kg/injection, schedule: Q01DX009 (ip), vehicle: saline with Tween-80", "value": "126 % of control"},
      {"measurement": "T/C", "setting": "dose: 200.0 mg/kg/injection, schedule: Q01DX009 (ip), vehicle: saline", "value": "127 % of control"},
      {"measurement": "T/C", "setting": "dose: 300.0 mg/kg/injection, schedule: Q01DX009 (ip), vehicle: saline sonified", "value": "136 % of control"},
      {"measurement": "T/C", "setting": "dose: 320.0 mg/kg/injection, schedule: Q01DX009 (ip), vehicle: saline", "value": "145 % of control"},
      {"measurement": "T/C", "setting": "dose: 400.0 mg/kg/injection, schedule: Q01DX009 (ip), vehicle: saline with Tween-80", "value": "125 % of control"},
      {"measurement": "T/C", "setting": "dose: 400.0 mg/kg/injection, schedule: Q04DX003 (ip), vehicle: saline sonified", "value": "130 % of control"},
      {"measurement": "T/C", "setting": "dose: 600.0 mg/kg/injection, schedule: Q01DX009 (ip), vehicle: saline with Tween-80", "value": "133 % of control"},
      {"measurement": "T/C", "setting": "dose: 600.0 mg/kg/injection, schedule: Q04DX003 (ip), vehicle: saline with Tween-80", "value": "126 % of control"},
      {"measurement": "survivor count", "setting": "dose: 1200.0 mg/kg/injection, schedule: Q01DX009 (ip), vehicle: saline sonified", "value": "5 of 6"}
    ]}
  ]
}
